According to US20210113650A1 (Northwestern University, priority 2018, published 2021):
No end group written: not given here. *: point of attachment. Palmitoyl = CCCCCCCCCCCCCCCC(=O)*

Experiment: general procedure: Fmoc solid-phase peptide synthesis; Rink amide MBHA resin; HBTU/DIEA
Settings: whole synthesis, absorbance at 220 nm

| Substance | final purity (method not given) [%] |
| --- | --- |
| Palmitoyl-VVVAAAEEE | >95 |
| Palmitoyl-VVVAAAEEEMQMKKVLDS | >95 |
